Measurements published in publication doi:10.1101/2023.09.13.557663.
These are yes or no findings as the source states them, for the method shown. In cells and extracts the contact can be indirect. These calls come from enrichment with a bait or labelling near it, and not all partners need be listed.

What was measured:
[1] = biological target: EGFR-flag-TurboID (EGFR-TurboID fusion construct, HeLa clone T1), P00533; assay: proximity labelling; conditions: remark: other sources report otherwise
[2] = biological target: EGFR-flag-TurboID (EGFR-TurboID fusion construct, HeLa clone T1) (UniProt P00533); assay: proximity labelling

| binding [1] | binding [2] | Binder |
| --- | --- | --- |
| binds |  | clathrin interactor 1 (CLINT1), Q14677 1-625 (protein) MLNMWKVRELVDKATNVVMNYSEIESKVREATNDDPWGPSGQLMGEIAKATFMYEQFPELMNMLWSRMLKDNKKNWRRVYKSLLLLAYLIRNGSERVVTSAREHIYDLRSLENYHFVDEHGKDQGINIRQKVKELVEFAQDDDRLREERKKAKKNKDKYVGVSSDSVGGFRYSERYDPEPKSKWDEEWDKNKSAFPFSDKLGELSDKIGSTIDDTISKFRRKDREDSPERCSDSDEEKKARRGRSPKGEFKDEEETVTTKHIHITQATETTTTRHKRTANPSKTIDLGAAAHYTGDKASPDQNASTHTPQSSVKTSVPSSKSSGDLVDLFDGTSQSTGGSADLFGGFADFGSAAASGSFPSQVTATSGNGDFGDWSAFNQAPSGPVASSGEFFGSASQPAVELVSGSQSALGPPPAASNSSDLFDLMGSSQATMTSSQSMNFSMMSTNTVGLGLPMSRSQNTDMVQKSVSKTLPSTWSDPSVNISLDNLLPGMQPSKPQQPSLNTMIQQQNMQQPMNVMTQSFGAVNLSSPSNMLPVRPQTNALIGGPMPMSMPNVMTGTMGMAPLGNTPMMNQSMMGMNMNIGMSAAGMGLTGTMGMGMPNIAMTSGTVQPKQDAFANFANFSK |
|  | binds | RAB11FIP1 (protein, UniProt Q6WKZ4 1-1283) MSLMVSAGRGLGAVWSPTHVQVTVLQARGLRAKGPGGTSDAYAVIQVGKEKYATSVSERSLGAPVWREEATFELPSLLSSGPAAAATLQLTVLHRALLGLDKFLGRAEVDLRDLHRDQGRRKTQWYKLKSKPGKKDKERGEIEVDIQFMRNNMTASMFDLSMKDKSRNPFGKLKDKIKGKNKDSGSDTASAIIPSTTPSVDSDDESVVKDKKKKSKIKTLLSKSNLQKTPLSQSMSVLPTSKPEKVLLRPGDFQSQWDEDDNEDESSSASDVMSHKRTASTDLKQLNQVNFTLPKKEGLSFLGGLRSKNDVLSRSNVCINGNHVYLEQPEAKGEIKDSSPSSSPSPKGFRKKHLFSSTENLAAGSWKEPAEGGGLSSDRQLSESSTKDSLKSMTLPSYRPAPLVSGDLRENMAPANSEATKEAKESKKPESRRSSLLSLMTGKKDVAKGSEGENPLTVPGREKEGMLMGVKPGEDASGPAEDLVRRSEKDTAAVVSRQGSSLNLFEDVQITEPEAEPESKSEPRPPISSPRAPQTRAVKPRLEVSPEAQPTARLPSPTDSPSSLPPLPSSSGQASVPSELGHGADTQSSESPSVFSSLSSPIAAPISTSTPIESWPLVDRGQAKSEGPPLLPKAELQTESLTPVPNSGSSALGSLFKQPSFPANKGTEDSLMGRTRETGTEKNTSSLELEESLPEQPETGRQEEELPRFPCKKQDYSPSSGEAQEVPFALSLSSDGAVSPVGELAAGGDRDLESQAGSLVESKARDAAEEVAPPLPMGASVPSIDSMMRKLEEMGLNLRKDQKKTKKRVSFSEQLFTEEAVAGAALLVEGHSSCPQELNPAWSVAGNASDGEPPESPHAEDSERESVTTPGPATCGAPASPADHLLLPSQEESFSEVPMSEASSAKDTPLFRMEGEDALVTQYQSKASDHEGLLSDPLSDLQLVSDFKSPIMADLNLSLPSIPEVASDDERIDQVEDDGDQVEDDGETAKSSTLDIGALSLGLVVPCPERGKGPSGEADRLVLGEGLCDFRLQAPQASVTAPSEQTTEFGIHKPHLGKSSSLDKQLPGPSGGEEEKPMGNGSPSPPPGTSLDNPVPSPSPSEIFPVTHSFPSSAHSDTHHTSTAESQKKATAEGSAGRVENFGKRKPLLQAWVSPSETHPVSAQPGAGTGSAKHRLHPVKPMNAMATKVANCSLGTATIISENLNNEVMMKKYSPSDPAFAYAQLTHDELIQLVLKQKETISKKEFQVRELEDYIDNLLVRVMEETPNILRIPTQVGKKAGKM |
